# From patent US20130122005A1, “ANTICANCER COMBINATION THERAPY” (priority 2011, published 2013)
# At least one compound was matched to its structure with a doubt left.
# How the values were obtained:
# PTEN = test: Western blot of PTEN levels in SK-ES-1 cells; format: cell-based; details: 100 nM, 24 hours
# phosphorylation of AKT = test: Western blot of phosphorylated AKT in SK-ES-1 cells; format: cell-based; details: 100 nM, 24 hours
structure (smiles),measurement,setting,value
"CO[C@H]1C[C@@H]2CC[C@@H](C)[C@@](O)(O2)C(=O)C(=O)N2CCCC[C@H]2C(=O)O[C@H]([C@H](C)C[C@@H]2CC[C@@H](O)[C@H](OC)C2)CC(=O)[C@H](C)/C=C(\C)[C@@H](O)[C@@H](OC)C(=O)[C@H](C)C[C@H](C)/C=C/C=C/C=C/1C [rapamycin, reference compound]",effect on total levels of PTEN,PTEN,do not affect the total levels of PTEN
same,effect on phosphorylation of AKT,phosphorylation of AKT,higher levels of phosphorylated AKT than the control
